Source: PubChem BioAssay AID2685 (National Center for Advancing Translational Sciences (NCATS), 2010)
Some of the results follow. These are further read-outs of the screen, such as a control signal, another cell line or another target. No call is given for them. Compounds called inactive in the main read-out are mostly missing here. The note in brackets gives the kind of curve behind each potency; many fits are weak.

Assay: qHTS Assay for Lipid Storage Modulators in Drosophila S3 Cells;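 for cell number change: cells counted by Cell Tracker Red CMTPX staining in the red channel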
Conditions: BODIPY lipid droplet fluorescence, 18-24 h; for cell number change: measured here: cell count max response, cells fed with added oleic acid
Method in brief: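 Laser-scanning cytometry quantifies lipid droplet accumulation (500–530 nm total intensity; droplet/cell object ratio) in oleic acid-fed (400 uM added) Drosophila S3 cells treated with a concentration series. 20 uM Triacsin C defined 100% inhibition.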

[1] = measured here: lipid fluorescence (Fed channel) AC50, cells fed with added oleic acid
[2] = measured here: cell number channel AC50, cells fed with added oleic acid

SMILES | cell number change [%] | AC50 [1] | AC50 [2]
Cc1ccc(C)c(NC(=S)N2CCN(c3ccccn3)CC2)c1 | 2.47 | 29.1 µM [rising, single point] | –
Cc1cc(C)cc(OCC(O)Cn2nc(C)cc2C)c1 (configuration not stated) | 19.1 | – | –
CCOC(CNC(=O)CCc1c(C)nc2nc(C)nn2c1C)OCC | -13.3 | 29.1 µM [falling, single point] | 2.06 µM [falling, partial curve, poor fit]
NC(=O)NC(=O)CN1C(=O)NC(c2ccccc2)(c2ccccc2)C1=O | 13.7 | 29.1 µM [rising, single point] | –
CC(Sc1ncnc2c1cnn2-c1ccccc1)C(=O)Nc1ccc(N2CCOCC2)cc1 (configuration not stated) | 6.88 | 0.103 µM [rising, full curve, poor fit] | –
COc1ccc(NC(C)=O)cc1NC(=O)CSc1nnc(-c2ccccc2)n1N | 13.5 | 2.06 µM [falling, partial curve] | –
CS(=O)(=O)NCCSCc1c(Cl)cccc1Cl | 11.1 | 6.51 µM [falling, single point] | –
Cc1ccccc1CSCC(=O)N1CCN(c2ccccc2)CC1 | – | 5.8 µM [rising, partial curve] | –
COc1ccc(CNC(=O)COc2cc3c(c4oc(=O)cc(C)c24)CCC(C)(C)O3)cc1OC | 4.28 | 29.1 µM [falling, single point] | –
CCSc1ncc(Cl)c(C(=O)Nc2ccc(S(=O)(=O)Nc3ncccn3)cc2)n1 | -13.4 | – | –
COc1ccc(N/C(=C(/C(Cl)=C(Cl)Cl)[N+](=O)[O-])n2nnc3ccccc32)cc1 | 17.9 | – | 0.731 µM [rising, full curve, poor fit]
O=C(Nc1ccccc1N1CCCCC1)c1cccc(OC(F)F)c1 | -17.9 | – | –
COc1ccc(N2CCN(CC(O)COc3ccccc3[N+](=O)[O-])CC2)cc1 (configuration not stated) | 33.3 | 8.2 µM [rising, partial curve] | –
CC12CC3CC(C)(C1)CC(CN1CCOCC1)(C3)C2 | -1.06 | 23.1 µM [falling, single point] | –
Cc1cccc(C(=O)Nc2nccs2)c1[N+](=O)[O-] | -21.5 | – | –
COc1ccc(C(=O)N/C(=C\c2cccc3ccccc23)C(=O)NCCc2c[nH]c3ccccc23)cc1OC | -19.2 | 4.61 µM [falling, partial curve, poor fit] | –
CCN1CCN(c2nc(-c3ccccn3)nc3ccccc23)CC1 | 22.9 | 0.00461 µM [rising, full curve, poor fit] | –
Cc1nc2nc(-c3cccnc3)[nH]n2c(=O)c1C | 18.1 | 18.4 µM [falling, partial curve] | –
CCOC(=O)Cn1nnnc1CN(Cc1ccc(OC)cc1)Cc1cc2cc(C)cc(C)c2[nH]c1=O | – | 2.06 µM [rising, partial curve] | 0.92 µM [rising, full curve]

Single values from above.
Entry of `COc1ccc(NC(C)=O)cc1NC(=O)CSc1nnc(-c2ccccc2)n1N` under AC50 [1]: 2.06 µM [falling, partial curve]
Entry of `CCN1CCN(c2nc(-c3ccccn3)nc3ccccc23)CC1` under AC50 [1]: 0.00461 µM [rising, full curve, poor fit]

Additional results follow.

SMILES | cell number change [%] | AC50 [1] | AC50 [2]
CCC(=O)NC(c1cccs1)c1cc(Cl)c2ccccc2c1O (configuration not stated) | 14.9 | 0.411 µM [falling, partial curve] | –
O=C(CN1CCN(c2ccccc2F)CC1)Nc1ccccc1F | -4.07 | – | 6.51 µM [falling, single point]
O=C(OCc1ccccc1F)c1cc2ccccc2cc1O | 13.5 | – | –
CC1(C)C2CCC1(C)C(OCCNCCOC(=O)Nc1ccccc1)C2 (configuration not stated) | -58.7 | 29.1 µM [falling, single point] | –
O=C(COC(=O)c1ccccc1NS(=O)(=O)c1cc([N+](=O)[O-])ccc1Cl)c1ccccc1 | -35.7 | 20.6 µM [falling, single point] | –
CCOC(=O)c1sc(NC(=O)CSc2nnnn2-c2ccc(C)cc2C)nc1C | 27.4 | – | 0.082 µM [rising, full curve, poor fit]
N#CC1=C(N)OC2=C(C(=O)CC(c3ccccc3)C2)C1c1cccnc1 (configuration not stated) | -8.6 | 5.17 µM [rising, partial curve] | –
Cc1cccc(NC(=O)COc2coc(CN3CCN(c4ccccc4)CC3)cc2=O)c1C | -50 | – | 8.2 µM [falling, partial curve, poor fit]
O=C(NCCC1=CCCCC1)C1CCN(Cc2cnn(-c3ccccc3)c2-n2cccc2)CC1 | 1.96 | 0.731 µM [falling, full curve, poor fit] | 0.206 µM [falling, full curve, poor fit]
CCc1ccc(NC(=O)CSc2ccc(-c3cccnc3)nn2)cc1 | 35.7 | 0.708 µM [rising, full curve, poor fit] | –
N/C(=N\OC(=O)c1ccc(Cl)cc1Cl)c1cccnc1 | 23.3 | 4.61 µM [rising, partial curve] | –
CCC(NC(=O)Nc1ccc(O)cc1)(C(F)(F)F)C(F)(F)F | -21 | 1.84 µM [falling, full curve, poor fit] | –
O=C(NCCCn1cccn1)C1CCC(=O)N(CCc2ccccc2)C1 (configuration not stated) | 45.9 | – | 4.61 µM [rising, partial curve]
O=C(CN1CCOCC1)Nc1ccc2c(c1)OC(F)(F)O2 | -16.5 | 3.26 µM [falling, full curve, poor fit] | –
CC1CCCCC1NC(=O)c1cccc(S(=O)(=O)N2CCN(Cc3ccccc3)CC2)c1 (configuration not stated) | – | 0.731 µM [rising, single point] | 1.64 µM [falling, partial curve]
COc1ccc(C)cc1NC(=O)C(c1ccccc1)N1CCN(CC(=O)N2CCOCC2)CC1 (configuration not stated) | – | 6.51 µM [rising, single point] | 6.51 µM [rising, single point]
Cc1nc2ccccn2c1-c1ccnc(=S)[nH]1 | 15.9 | 4.11 µM [rising, partial curve] | 6.51 µM [rising, single point]
Cc1ccc2c(c1)C(c1ccccc1)N(C(=O)c1ccc(F)cc1)CC(=O)N2 (configuration not stated) | 18 | 4.61 µM [rising, partial curve, poor fit] | –
Cc1ccc(-n2nc3c(c2NC(=O)c2cccs2)CS(=O)(=O)C3)c(C)c1 | 28.7 | – | –
